Results as given in patent US20200261490A1.
No constants are given. Whether binding was seen depends on the method and setting. Some results given as binding are weak or reduced against the parent protein; the word gives no strength.

The chains behind the UniProt entries cited, without tags or fusion partners. Where a name states a change or a piece, a line headed by the entry shows the natural chain unless it says otherwise. Residues count along the entry.
UniProt Q8R4K8, residues 82-1624: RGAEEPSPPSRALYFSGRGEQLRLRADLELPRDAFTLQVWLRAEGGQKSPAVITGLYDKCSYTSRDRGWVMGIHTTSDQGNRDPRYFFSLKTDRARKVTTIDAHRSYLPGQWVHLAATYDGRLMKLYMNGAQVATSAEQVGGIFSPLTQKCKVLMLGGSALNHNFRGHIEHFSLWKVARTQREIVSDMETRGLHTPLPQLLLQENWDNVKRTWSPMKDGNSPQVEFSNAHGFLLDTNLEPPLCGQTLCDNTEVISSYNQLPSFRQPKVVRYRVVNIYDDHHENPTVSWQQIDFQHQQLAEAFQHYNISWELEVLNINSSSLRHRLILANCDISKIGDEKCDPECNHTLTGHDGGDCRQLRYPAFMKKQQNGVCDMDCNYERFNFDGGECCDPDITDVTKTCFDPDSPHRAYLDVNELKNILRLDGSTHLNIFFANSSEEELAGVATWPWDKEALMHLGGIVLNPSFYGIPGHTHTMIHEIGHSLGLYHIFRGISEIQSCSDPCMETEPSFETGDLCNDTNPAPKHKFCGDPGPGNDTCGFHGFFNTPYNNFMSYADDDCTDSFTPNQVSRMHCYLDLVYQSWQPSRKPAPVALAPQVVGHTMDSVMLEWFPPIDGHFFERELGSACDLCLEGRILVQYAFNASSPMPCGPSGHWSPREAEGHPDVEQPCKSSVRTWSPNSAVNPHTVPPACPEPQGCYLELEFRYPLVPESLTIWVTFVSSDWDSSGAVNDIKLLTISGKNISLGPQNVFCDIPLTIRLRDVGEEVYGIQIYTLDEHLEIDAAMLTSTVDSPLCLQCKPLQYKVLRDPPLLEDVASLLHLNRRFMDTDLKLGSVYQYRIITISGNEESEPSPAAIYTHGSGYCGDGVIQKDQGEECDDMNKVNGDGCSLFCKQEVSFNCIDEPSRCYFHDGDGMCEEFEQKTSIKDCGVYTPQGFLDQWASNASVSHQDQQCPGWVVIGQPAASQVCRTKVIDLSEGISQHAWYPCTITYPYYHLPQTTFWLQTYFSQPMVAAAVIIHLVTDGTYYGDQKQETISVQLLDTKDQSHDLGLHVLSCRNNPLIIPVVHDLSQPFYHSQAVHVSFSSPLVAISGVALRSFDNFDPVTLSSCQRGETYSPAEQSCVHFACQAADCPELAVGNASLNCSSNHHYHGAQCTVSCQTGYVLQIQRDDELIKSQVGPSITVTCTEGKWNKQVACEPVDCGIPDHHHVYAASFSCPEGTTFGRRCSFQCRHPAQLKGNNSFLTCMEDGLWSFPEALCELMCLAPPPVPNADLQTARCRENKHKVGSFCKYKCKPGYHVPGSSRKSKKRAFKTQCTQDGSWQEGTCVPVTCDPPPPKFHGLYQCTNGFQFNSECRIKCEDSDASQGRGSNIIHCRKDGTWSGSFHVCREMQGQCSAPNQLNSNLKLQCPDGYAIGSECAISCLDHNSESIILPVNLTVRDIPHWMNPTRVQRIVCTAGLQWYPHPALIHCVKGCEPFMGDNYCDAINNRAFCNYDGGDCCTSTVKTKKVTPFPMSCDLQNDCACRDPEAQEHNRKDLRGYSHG
UniProt Q9BXP8: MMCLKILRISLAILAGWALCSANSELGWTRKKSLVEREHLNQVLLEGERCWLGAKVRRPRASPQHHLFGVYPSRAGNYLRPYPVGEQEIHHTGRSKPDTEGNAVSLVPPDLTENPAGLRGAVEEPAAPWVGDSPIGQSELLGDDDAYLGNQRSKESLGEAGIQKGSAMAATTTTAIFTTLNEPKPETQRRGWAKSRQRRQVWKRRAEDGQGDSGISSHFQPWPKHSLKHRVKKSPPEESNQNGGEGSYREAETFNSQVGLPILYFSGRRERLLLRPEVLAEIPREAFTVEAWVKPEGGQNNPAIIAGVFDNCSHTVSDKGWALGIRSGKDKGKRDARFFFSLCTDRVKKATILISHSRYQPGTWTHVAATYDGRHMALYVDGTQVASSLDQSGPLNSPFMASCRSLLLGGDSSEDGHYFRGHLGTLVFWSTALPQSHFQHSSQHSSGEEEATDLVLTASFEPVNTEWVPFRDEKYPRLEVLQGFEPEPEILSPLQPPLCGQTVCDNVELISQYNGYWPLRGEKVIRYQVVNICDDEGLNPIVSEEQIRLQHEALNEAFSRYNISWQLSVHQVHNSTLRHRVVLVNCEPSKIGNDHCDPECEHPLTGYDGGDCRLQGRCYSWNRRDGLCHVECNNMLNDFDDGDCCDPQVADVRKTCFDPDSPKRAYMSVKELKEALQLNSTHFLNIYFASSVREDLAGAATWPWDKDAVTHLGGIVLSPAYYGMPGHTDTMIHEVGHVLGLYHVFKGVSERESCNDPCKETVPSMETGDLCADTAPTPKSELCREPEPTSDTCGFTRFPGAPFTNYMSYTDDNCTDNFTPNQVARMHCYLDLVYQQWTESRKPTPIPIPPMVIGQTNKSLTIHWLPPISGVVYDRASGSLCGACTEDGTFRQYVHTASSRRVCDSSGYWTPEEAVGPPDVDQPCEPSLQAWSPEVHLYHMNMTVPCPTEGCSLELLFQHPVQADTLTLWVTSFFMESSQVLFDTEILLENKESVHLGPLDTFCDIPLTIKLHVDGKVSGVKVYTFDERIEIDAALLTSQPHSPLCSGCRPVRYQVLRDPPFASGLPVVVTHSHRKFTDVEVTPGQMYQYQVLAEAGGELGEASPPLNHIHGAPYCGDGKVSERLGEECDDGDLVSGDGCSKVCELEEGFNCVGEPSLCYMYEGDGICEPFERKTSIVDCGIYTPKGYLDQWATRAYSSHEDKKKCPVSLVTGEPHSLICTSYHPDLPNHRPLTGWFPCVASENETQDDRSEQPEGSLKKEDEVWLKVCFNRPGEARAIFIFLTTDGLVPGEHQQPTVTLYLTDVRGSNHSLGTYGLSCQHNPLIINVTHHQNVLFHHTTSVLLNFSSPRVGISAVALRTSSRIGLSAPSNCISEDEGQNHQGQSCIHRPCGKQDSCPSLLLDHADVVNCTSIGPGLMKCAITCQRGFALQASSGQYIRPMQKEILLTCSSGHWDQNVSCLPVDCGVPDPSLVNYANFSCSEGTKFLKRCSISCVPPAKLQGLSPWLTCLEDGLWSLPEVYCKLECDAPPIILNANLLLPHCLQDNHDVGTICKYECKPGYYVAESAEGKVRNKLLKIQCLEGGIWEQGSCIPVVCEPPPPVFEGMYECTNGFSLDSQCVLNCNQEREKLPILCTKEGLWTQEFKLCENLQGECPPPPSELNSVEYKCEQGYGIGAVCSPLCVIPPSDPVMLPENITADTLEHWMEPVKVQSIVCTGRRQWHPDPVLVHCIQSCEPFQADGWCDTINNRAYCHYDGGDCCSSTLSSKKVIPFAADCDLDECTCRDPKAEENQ

Key:
murine PAPP-A (mouse) [1] = molecular target: murine PAPP-A (mouse) (UniProt Q8R4K8); experiment: Western blot
[2] = molecular target: human PAPP-A2 (pappalysin-2) (human) (UniProt Q9BXP8); experiment: PAPP-A2 Western blot of medium from cotransfected HEK293T cells
murine PAPP-A (mouse) [3] = molecular target: murine PAPP-A (mouse) (UniProt Q8R4K8); experiment: immunoprecipitation with mAb STC221 from MEF medium; Western blot with mAb D8-mIgG2a
murine PAPP-A (mouse) [4] = molecular target: murine PAPP-A (mouse) (UniProt Q8R4K8); experiment: immunoprecipitation with mAb STC221 from MEF medium; PAPP-A Western blot

Substance	binding (murine PAPP-A (mouse) [1])	binding [2]	binding (murine PAPP-A (mouse) [3])	binding (murine PAPP-A (mouse) [4])
recombinant human stanniocalcin 2, C-terminally myc-his-tagged (from UniProt O76061 25-302)	binds	binds	–	–
untagged human STC2 (transgene-derived STC2 of transgenic mice; endogenous STC2 of 293T cells) (from UniProt O76061 25-302)	–	–	binds	binds
